Measurements reported in PubChem BioAssay AID1159578 (Peter MacCallum Cancer Centre, 2015)

Test: 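Genome-wide hunt for genes controlling movement of lymphatic endothelial cells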 (primary screen)
Cell system: human lymphatic endothelial cells
Reagent: siRNA pool against human genes, 40 nM
Duration: 48 h after transfection
Detection: 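Cells stained with dye and imaged after a scratch; covered wound area and nuclei counted, duplicates averaged, migration set against mock wells and turned into a robust z-score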
Direction: migration robust z-score: higher = faster migration into the scratch; nuclei per well: higher = more cells in the well
Rule for the call: 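Pools averaging fewer than 3300 nuclei are never called; remaining pools count as changed when migration robust z lies outside -2 to 2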
Calls: active = migration changed; inactive = no migration change, or too few cells
The deposit covers about 18,000 reagents; shown is an unselected part. About 1,030 of them (5.7%) count as active. 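Inactive calls also include pools with fewer than 3300 nuclei, whose migration was not assessed.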 Raw values are not corrected between plates. A number with no mark means an inactive call. Not all columns of the deposit are shown. No sequences are given here.

ANKHD1-EIF4EBP3 (ANKHD1-EIF4EBP3 readthrough) → migration robust z-score: -0.03; migration class with cell-count check: migration z between -2 and 2; enough cells; nuclei per well, duplicate mean: 5294
ATOH8 (atonal bHLH transcription factor 8) → migration robust z-score: -0.56; migration class with cell-count check: migration z between -2 and 2; enough cells; nuclei per well, duplicate mean: 6174
SPACA5B (sperm acrosome associated 5B) → migration robust z-score: 0.02; migration class with cell-count check: migration z between -2 and 2; enough cells; nuclei per well, duplicate mean: 6055
PRDM11 (PR/SET domain 11) → migration robust z-score: 1.71; migration class with cell-count check: migration z between -2 and 2; enough cells; nuclei per well, duplicate mean: 5129
CAMP (cathelicidin antimicrobial peptide) → migration robust z-score: 0.02; migration class with cell-count check: migration z between -2 and 2; enough cells; nuclei per well, duplicate mean: 5796
IRAK1 (interleukin 1 receptor associated kinase 1) → migration robust z-score: -0.05; migration class with cell-count check: migration z between -2 and 2; enough cells; nuclei per well, duplicate mean: 6502
CCL23 (C-C motif chemokine ligand 23) → migration robust z-score: -2.35 (active); migration class with cell-count check: migration z below -2; enough cells; nuclei per well, duplicate mean: 5536
ZNF253 (zinc finger protein 253) → migration robust z-score: 0.1; migration class with cell-count check: migration z between -2 and 2; enough cells; nuclei per well, duplicate mean: 5285
ZNF236 (zinc finger protein 236) → migration robust z-score: 0.37; migration class with cell-count check: migration z between -2 and 2; enough cells; nuclei per well, duplicate mean: 5781
ATP7A (ATPase copper transporting alpha) → migration robust z-score: -1.53; migration class with cell-count check: migration z between -2 and 2; enough cells; nuclei per well, duplicate mean: 4912
SPECC1 → migration robust z-score: 1.1; migration class with cell-count check: migration z between -2 and 2; enough cells; nuclei per well, duplicate mean: 6219
ACACA (acetyl-CoA carboxylase alpha) → migration robust z-score: -0.42; migration class with cell-count check: migration z between -2 and 2; enough cells; nuclei per well, duplicate mean: 3454
NOD1 (nucleotide binding oligomerization domain containing 1) → migration robust z-score: 0.6; migration class with cell-count check: migration z between -2 and 2; enough cells; nuclei per well, duplicate mean: 6464
KDELR2 (KDEL endoplasmic reticulum protein retention receptor 2) → migration robust z-score: -0.42; migration class with cell-count check: migration z between -2 and 2; enough cells; nuclei per well, duplicate mean: 6851

2 entries from above in another layout.
Gene,migration robust z-score,migration class with cell-count check,"nuclei per well, duplicate mean"
ACACA (acetyl-CoA carboxylase alpha),-0.42,migration z between -2 and 2; enough cells,3454
NOD1 (nucleotide binding oligomerization domain containing 1),0.6,migration z between -2 and 2; enough cells,6464
